Test results from paper PMC11566183.
No constants are given. Whether binding was seen depends on the method and setting. Binding seen in cells or lysates may run through a third protein. Some binding calls cover weakened binding; strength is not graded here. Tags and fused reporters may be left off the sequences shown.

By UniProt entry, the sequences of proteins in these tests, tags left out.
UniProt P11142: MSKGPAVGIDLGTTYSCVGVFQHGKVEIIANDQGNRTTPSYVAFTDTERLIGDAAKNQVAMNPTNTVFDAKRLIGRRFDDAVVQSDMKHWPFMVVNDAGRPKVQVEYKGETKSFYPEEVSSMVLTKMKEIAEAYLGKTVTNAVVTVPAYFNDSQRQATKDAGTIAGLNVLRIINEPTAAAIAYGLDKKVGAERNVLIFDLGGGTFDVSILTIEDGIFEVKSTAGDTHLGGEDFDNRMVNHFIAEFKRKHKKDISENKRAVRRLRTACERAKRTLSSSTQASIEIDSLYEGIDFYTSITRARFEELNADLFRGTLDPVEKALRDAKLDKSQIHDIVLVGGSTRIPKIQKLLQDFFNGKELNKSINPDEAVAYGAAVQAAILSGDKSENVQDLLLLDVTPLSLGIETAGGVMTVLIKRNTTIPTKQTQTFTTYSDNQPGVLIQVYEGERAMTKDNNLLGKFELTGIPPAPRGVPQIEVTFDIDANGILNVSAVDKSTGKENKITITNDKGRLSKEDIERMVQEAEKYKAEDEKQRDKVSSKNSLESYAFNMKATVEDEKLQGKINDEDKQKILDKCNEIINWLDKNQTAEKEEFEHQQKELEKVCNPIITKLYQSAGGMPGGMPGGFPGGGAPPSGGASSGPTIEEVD

Biological target: myc-tagged full-length HSPA8 (HSPA8-myc) (UniProt P11142)
Assay: co-IP; HEK-293 T cells co-transfected with the plasmids for 36 h; WB/IP lysis buffer with protease inhibitors; supernatant incubated overnight at 4 °C with anti-HA, anti-Flag or anti-myc magnetic beads; washed with cold PBS; immunoblot; HSPA8-myc with Flag-TBK1 tested with Nsp2-HA or HA-tagged empty …

B1: Flag-tagged TANK-binding kinase 1 (Flag-TBK1) (enzyme, UniProt Q9UHD2 1-729)
chain: MQSTSNHLWLLSDILGQGATANVFRGRHKKTGDLFAIKVFNNISFLRPVDVQMREFEVLKKLNHKNIVKLFAIEEETTTRHKVLIMEFCPCGSLYTVLEEPSNAYGLPESEFLIVLRDVVGGMNHLRENGIVHRDIKPGNIMRVIGEDGQSVYKLTDFGAARELEDDEQFVSLYGTEEYLHPDMYERAVLRKDHQKKYGATVDLWSIGVTFYHAATGSLPFRPFEGPRRNKEVMYKIITGKPSGAISGVQKAENGPIDWSGDMPVSCSLSRGLQVLLTPVLANILEADQEKCWGFDQFFAETSDILHRMVIHVFSLQQMTAHKIYIHSYNTATIFHELVYKQTKIISSNQELIYEGRRLVLEPGRLAQHFPKTTEENPIFVVSREPLNTIGLIYEKISLPKVHPRYDLDGDASMAKAITGVVCYACRIASTLLLYQELMRKGIRWLIELIKDDYNETVHKKTEVVITLDFCIRNIEKTVKVYEKLMKINLEAAELGEISDIHTKLLRLSSSQGTIETSLQDIDSRLSPGGSLADAWAHQEGTHPKDRNVEKLQVLLNCMTEIYYQFKKDKAERRLAYNEEQIHKFDKQKLYYHATKAMTHFTDECVKKYEAFLNKSEEWIRKMLHLRKQLLSLTNQCFDIEEEVSKYQEYTNELQETLPQKMFTASSGIKHTMTPIYPSSNTLVEMTLGMKKLKEEMEGVVKELAENNHILERFGSLTMDGGLRNVDCL
In the case of B1, the binding is reported as “binds”.
